From patent US20110229491A1 (published 2011)

Molecular target: YFPC, the fragment containing amino acid residues 155-238 of YFP (empty vector)
Experiment: BiFC in tobacco leaf epidermal cells (ETG1-YFPN and YFPC)

B1: ETG1:YFPN fusion protein (other, UniProt Q501D5 1-589, looked up)
chain: MGGPAYDCLTNPLGAVRFSFVNALSSGYDPASSVGKDWGVVDLFRHYFSDESAISQVPILDSSSIKWVQPKTLVRFRGMIQDMLGNEFYAGAYKDDSTWRTNKYSDVSQFPEGSSTEIQVWERRLLYCVPVPGKNQWTECSSQELKNRFLDLTGQNREKRVRVDEEMTDSMDSSTLEAGRNGSPFKKMKVGEATSSASESQVPQTSGIPPATSADSLPCLVKIYDSPESDLKLNDVVEFLGVLTFDPIVMMDTDTLDENSDALSEAESVQMPSGKVPRLHCLIHRKLETQHFLHGSSLLPEPKSPQIFKEIRESLMKYLTGLLGNDHIAAQFLLLHLLSKVHGRVDNVAVGKLSLNLIHLNKESMSIFGTQLSGALKSLLPFTQSIPLTIEYLNTASFGPKKDYGINRLMPGVLQIADGTHLILDETELQPGTLNSVGVENANLLKNLLECQKVEYDFQYYKMEMATDVQMLIFSEGKSNIMPADLVLPLQPSQVNSLEVITPETAETWRCYLATCKSLSHSIGQELQQVVENDLVAARQTDRSLGSQDLSRLLTMARMMSVSYGETTLSLEHWQMVLELERLRKERLK
notes: range 1-589;range 1-154; BiFC construct expressed in tobacco leaf epidermal cells; not shown: YFPN: fragment with amino acid residues 1-154 of YFP (plasmid pUC-SPYNE)
binding: no binding

Results are given in words; binding and its absence hold for the method and conditions named. Where a sequence is shown, tags or fusion partners need not be part of it.
